Data from PMC6112376, “Comprehensive Analyses and Prioritization of Tox21 10K Chemicals Affecting Mitochondrial Function by in-Depth Mechanistic Studies” (Environmental Health Perspectives, 2018).

Legend:
[1] = system: rat primary hepatocytes
[2] = system: rat primary hepatocytes; assay: MMP assay in rat primary hepatocytes; conditions: Hepatocyte, read-out: MMP assays IC50 (µM), Rat Hepatocytes

Compound: Cc1cc(/C=C/c2ccc3cc(N(C)C)ccc3[n+]2C)c(C)n1-c1ccccc1 [Pyrvinium pamoate]
- MMP assays efficacy (%), Rat Hepatocytes [1]: -87±54%
- IC50 [2]: 1.03 ± 0.26 µM
